About 610 (0.16%) of roughly 390,000 compounds were called active. Inconclusive results, whose numbers are uncertain, are shown with a selection of clear calls. Calls follow the shape of the dose curve; as a rule, active = well fitted inhibition curve with a large enough effect; inconclusive = small, poorly fitted or top-dose-only effect, or effect the other way, or another doubt; inactive = no such curve, though single readings can be large or run the other way. Where the call is inconclusive, the potency comes from a doubtful curve fit.
assay: Nrf2 qHTS screen for inhibitors: counterscreen for cytotoxicity; conditions: A549 ARE-Fluc cells, CellTiter-Fluor viability, 18-24 h; activity change, negative = cytotoxicity: at 46 µM (top of the series)
Outline: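 Cytotoxicity counterscreen: CellTiter-Fluor fluorescence was measured in A549 ARE_Fluc cells after 18-24 h of compound exposure in a concentration series. The subsequent BugLite luminescent read reports ARE-luciferase activity.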
% is scaled to controls: 0 for no effect and ±100 for the full control effect; potency is read from the fitted curve at half-maximal effect.

| SMILES | Potency | activity change, negative = cytotoxicity |
| --- | --- | --- |
| COc1ccc(C)cc1-n1nnnc1SCC1CCCO1 (configuration not stated) | inconclusive: 18.4 µM [activator, partial curve, poor fit] |  |
| COC(=O)C1=C(C)NC(=O)/C1=C\c1cc(C)n(-c2c(C)cccc2C)c1C | active: 20.6 µM |  |
| Cc1ccc(S(=O)(=O)N2CCN(c3nc(-c4ccc(CN5CCNCC5)s4)nc4ccccc34)CC2)cc1 |  | inactive: 2.03% |
| Cc1ccccc1C(=O)NNC(=S)NC(=O)c1cccs1 | inconclusive: 29.1 µM [falling, single point] |  |
| COc1ccccc1N1CCN(C(=O)c2cc3c(s2)CCCCC3)CC1 | inconclusive: 16.4 µM [falling, partial curve, poor fit] |  |
| CCN(C(=O)c1ccc2c(c1)N(Cc1cccc(Cl)c1)C(=O)c1ccccc1S2=O)c1ccccc1 (configuration not stated) | inconclusive: 13 µM [falling, partial curve, poor fit] |  |
| Cc1ccc(CN(Cc2cc3cccc(C)c3[nH]c2=O)C(=S)NCCCN(C)C)cc1 | inconclusive: 29.1 µM [falling, single point] |  |
| Cc1cccc(C)c1OCc1cc(=O)n2c(-c3ccccc3)csc2n1 |  | inactive: 1.31% |
| Cn1nc(-c2ccc(OCC(=O)Nc3cccc(C(F)(F)F)c3)cc2)c2ccccc2c1=O | inconclusive: 32.6 µM [falling, partial curve, poor fit] |  |
| COc1cc(/C=C2\SC(=S)N(NS(=O)(=O)c3ccccc3)C2=O)ccc1O | inconclusive: 20.6 µM [falling, partial curve, poor fit] |  |
| O=C(NCCCc1nc2ccccc2n1Cc1ccc(F)cc1)C1CCCCC1 |  | inactive: 0.963% |
| C/C(N)=C(/C#N)C(=O)COC(=O)C(c1ccccc1)c1ccccc1 | inconclusive: 20.6 µM [activator, single point] |  |
| COC(=O)c1ccc(C)c(NS(=O)(=O)c2ccc(OC)cc2)c1 |  | inactive: -13.7% |
| Cc1nc(C)c(-c2ccc(SCC(=O)Nc3cccc(F)c3)nn2)s1 | inconclusive: 29.1 µM [falling, partial curve, poor fit] |  |
| O=P(CCCCCCCCCP(=O)(c1ccccc1)c1ccccc1)(c1ccccc1)c1ccccc1 | inconclusive: 29.1 µM [falling, partial curve, poor fit] |  |
| CCCN1/C(=C2/SC(=S)N(CC)C2=O)C=Cc2ccccc21 | active: 18.4 µM |  |
| CC1=C(C(=O)OCc2ccc3c(c2)OCO3)C(c2ccc(Cl)cc2)NC(=O)N1 (configuration not stated) | inconclusive: 0.411 µM [falling, partial curve, poor fit] |  |
| CCSc1nc2ccccc2n1C(=O)c1ccc(S(=O)(=O)N2CCCCC2)cc1 | inconclusive: 12.6 µM [activator, partial curve, poor fit] |  |
| O=[N+]([O-])c1cccc2nc3ccccc3c(NCCCn3ccnc3[N+](=O)[O-])c12 | inconclusive: 0.411 µM [falling, full curve] |  |
| CCc1cc(C(=O)NC2CCCc3c2cnn3-c2cccc(C)c2C)n(C)n1 (configuration not stated) | inconclusive: 9.2 µM [falling, partial curve] |  |
| COC(=O)/C=C1\S/C(=N/N=C/c2ccc(Cl)cc2)NC1=O | inconclusive: 25.9 µM [falling, partial curve, poor fit] |  |

| SMILES | Potency | activity change, negative = cytotoxicity |
| --- | --- | --- |
| CN(C(=O)CN1CCN(c2ccc([N+](=O)[O-])cn2)CC1)c1ccccc1 | inconclusive: 16.4 µM [falling, partial curve, poor fit] |  |
| Cc1ccc2c(c1)c1c3n2CCN(CC(N)=O)C3CCC1 (configuration not stated) | inconclusive: 29.1 µM [falling, single point] |  |
| CC1=CC(=C(C#N)C#N)c2ccccc2N1C | inconclusive: 13 µM [falling, partial curve, poor fit] |  |
| COc1ccc(C(=O)NCC2(N3CCCCC3)CCCCC2)cc1S(=O)(=O)N(C)C | inconclusive: 11.6 µM [falling, partial curve, poor fit] |  |
| O=C(CNc1cccc(C(F)(F)F)c1)Nc1cccc(S(=O)(=O)N2CCCC2)c1 |  | inactive: -23.3% |
| COc1ccc(N/N=C(\C#N)C(=N)N2CCOCC2)cc1 | inconclusive: 20.6 µM [falling, partial curve, poor fit] |  |
| COc1ccc(-c2ccc3ncnc(NCc4cccs4)c3c2)cc1 |  | inactive: 20.8% |
| CC1CCN(CCCNC(=O)C2CCC(CNS(=O)(=O)c3cccc4nsnc34)CC2)CC1 (configuration not stated) | inconclusive: 11.6 µM [activator, partial curve, poor fit] |  |
| CCN(c1ccc(C)cc1)S(=O)(=O)c1nnc(NC(=O)C2CCCCC2)s1 |  | inactive: 19.4% |
| CC1C(=O)C(C)C(c2cc(Cl)ccc2O)NC1c1cc(Cl)ccc1O (configuration not stated) | inconclusive: 23.1 µM [falling, partial curve, poor fit] |  |
| COc1ccc(-c2cc(-c3cccs3)nc(OC)c2C#N)cc1OC |  | inactive: 0.314% |
| CN1CCN(CCOC2Cc3ccccc3Sc3ccc(Cl)cc32)CC1 (configuration not stated) | inconclusive: 23.1 µM [falling, single point] |  |
| Cc1cc2[nH]c3c(c[n+](C)c4ccccc34)c2cc1C | inconclusive: 10.3 µM [falling, partial curve, poor fit] |  |
| COc1ccc(-n2c(C)c(C(C)=O)c3cc(OC(=O)c4ccc(C)cc4)ccc32)cc1 |  | inactive: -0.376% |
| Cc1cccc(N2CCN(S(=O)(=O)c3cnc[nH]3)CC2)c1C | inconclusive: 18.4 µM [activator, single point] |  |
| O=C(COc1ccccc1)Nc1ccc(CN2CCCCC2)cc1 | inconclusive: 18.4 µM [falling, partial curve, poor fit] |  |
| Cc1ccc(/C=C(/NC(=O)c2ccccc2)C(=O)NC(Cc2c[nH]c3ccccc23)C(=O)O)cc1 (configuration not stated) | inconclusive: 2.59 µM [falling, partial curve, poor fit] |  |
| Cc1ccc(NC(=O)C(C)OC(=O)c2ccc(Cl)nc2)cc1S(=O)(=O)N1CCOCC1 (configuration not stated) |  | inactive: 0.312% |
| Nc1cc(S(=O)(=O)N2CCOCC2)ccc1Oc1cccc(Br)c1 |  | inactive: -18.5% |
| Cc1ccc(NC(=O)CSc2nc(=O)n(CCCN3CCOCC3)c3c2CCCC3)cc1F |  | inactive: 1.74% |
| C=CCn1c(=O)c(C#N)cc2c(=O)n3ccccc3nc21 | inconclusive: 29.1 µM [activator, single point] |  |

Given as tab-separated lines: part of the list above.
SMILES	Potency	activity change, negative = cytotoxicity
Nc1cc(S(=O)(=O)N2CCOCC2)ccc1Oc1cccc(Br)c1		inactive: -18.5%
Cc1ccc(NC(=O)CSc2nc(=O)n(CCCN3CCOCC3)c3c2CCCC3)cc1F		inactive: 1.74%

— PubChem BioAssay AID504648 (National Center for Advancing Translational Sciences (NCATS), 2011)
